PubChem BioAssay AID686937, Drosophila RNAi Screening Center – 2013
The deposit covers about 23,000 reagents; this is a random part of those with a known target gene and a result. 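Reduced-secretion tags in replicate 1 do not always agree with the z-scores; no criterion for assigning the tags was given.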 Further read-outs or replicates are left out here. Reagent sequences are not shown. Not stated in the record: the amount of reagent.

Screen: 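Genes in the fly needed for secretion of protein constitutively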 (primary screen)
Cell system: Drosophila S2 cells expressing secreted horseradish peroxidase
Knock-down reagent: long dsRNA against Drosophila genes
Duration: about 5.5 days (5 days dsRNA, then 12 h reporter induction)
Conditions: reporter expression induced after 5 days of dsRNA, read 12 h later; inducer not stated
Measurement: 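After 5 days of dsRNA and 12 h of reporter induction, medium peroxidase read by chemiluminescence and scored as per-plate z-score; higher values mean more reporter released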
Scale: z-score: higher = more reporter secreted into medium

{"target gene":"robl37BC","dsRNA":"DRSC02472","z-score, replicate 1":0.23}
{"target gene":"CG31344","dsRNA":"DRSC16069","z-score, replicate 1":0.22}
{"target gene":"CG15800","dsRNA":"DRSC04271","z-score, replicate 1":0.32}
{"target gene":"Set1","dsRNA":"DRSC20930","z-score, replicate 1":-0.18}
{"target gene":"Set1","dsRNA":"DRSC20931","z-score, replicate 1":0.1}
{"target gene":"sa","dsRNA":"DRSC11649","z-score, replicate 1":0.36}
{"target gene":"CG30338","dsRNA":"DRSC05166","z-score, replicate 1":0.44}
{"target gene":"lncRNA:CR43485","dsRNA":"DRSC08059","z-score, replicate 1":-0.1}
{"target gene":"Fatp3","dsRNA":"DRSC04366","z-score, replicate 1":0.34}
{"target gene":"CG31031 (retired record)","dsRNA":"DRSC13964","z-score, replicate 1":0.2}
{"target gene":"CG5681","dsRNA":"DRSC02876","z-score, replicate 1":-0.33}
{"target gene":"Ets65A","dsRNA":"DRSC09968","z-score, replicate 1":0.32}
{"target gene":"Ets65A","dsRNA":"DRSC10738","z-score, replicate 1":0.58}
{"target gene":"Ets65A","dsRNA":"DRSC11164","z-score, replicate 1":0.39}
{"target gene":"ago","dsRNA":"DRSC08463","z-score, replicate 1":-0.01}
{"target gene":"CG33757","dsRNA":"DRSC05159","z-score, replicate 1":-0.33}
{"target gene":"CG8560","dsRNA":"DRSC10994","z-score, replicate 1":0.44}
{"target gene":"P5cr","dsRNA":"DRSC16782","z-score, replicate 1":0.36}
{"target gene":"Sem1","dsRNA":"DRSC02282","z-score, replicate 1":-1.79,"phenotype, replicate 1":"reduced secretion"}
{"target gene":"eIF4E5","dsRNA":"DRSC10975","z-score, replicate 1":0.49}
{"target gene":"sty","dsRNA":"DRSC08737","z-score, replicate 1":0.8}
{"target gene":"Abcd1","dsRNA":"DRSC17157","z-score, replicate 1":-0.1}
{"target gene":"CG43329","dsRNA":"DRSC11672","z-score, replicate 1":-0.18}
{"target gene":"CG4325","dsRNA":"DRSC18516","z-score, replicate 1":-1.62,"phenotype, replicate 1":"reduced secretion"}
{"target gene":"CG11617","dsRNA":"DRSC00321","z-score, replicate 1":0.39}
{"target gene":"CG11617","dsRNA":"DRSC21786","z-score, replicate 1":-0.47}
{"target gene":"CG12942","dsRNA":"DRSC06253","z-score, replicate 1":0.16}
{"target gene":"Ssu72","dsRNA":"DRSC19572","z-score, replicate 1":0.12}
{"target gene":"Mcm6","dsRNA":"DRSC18680","z-score, replicate 1":0.35}
{"target gene":"CG42342","dsRNA":"DRSC13165","z-score, replicate 1":0.4}
{"target gene":"CG42342","dsRNA":"DRSC14378","z-score, replicate 1":-1.45,"phenotype, replicate 1":"reduced secretion"}
{"target gene":"CG42342","dsRNA":"DRSC15010","z-score, replicate 1":-0.12}
{"target gene":"CG42342","dsRNA":"DRSC15011","z-score, replicate 1":-0.11}
{"target gene":"CG42342","dsRNA":"DRSC15012","z-score, replicate 1":-0.07}
{"target gene":"CG42342","dsRNA":"DRSC21791","z-score, replicate 1":-0.28}
{"target gene":"CG42342","dsRNA":"DRSC22861","z-score, replicate 1":-0.74}
{"target gene":"CG31560","dsRNA":"DRSC12136","z-score, replicate 1":0.53}
{"target gene":"abs","dsRNA":"DRSC12372","z-score, replicate 1":-0.6}
{"target gene":"CG30196","dsRNA":"DRSC04156","z-score, replicate 1":0.17}
{"target gene":"CG10958","dsRNA":"DRSC17768","z-score, replicate 1":0.58}

3 consecutive entries already listed:
{"target gene":"Set1","dsRNA":"DRSC20930","z-score, replicate 1":-0.18}
{"target gene":"Set1","dsRNA":"DRSC20931","z-score, replicate 1":0.1}
{"target gene":"sa","dsRNA":"DRSC11649","z-score, replicate 1":0.36}
